PubChem BioAssay AID504784 | Drosophila RNAi Screening Center | 2011

- Screen: 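Fly genes whose silencing alters how much lipid cells keep in droplets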 (primary screen)
- Cells: Drosophila Kc167 embryonic cells
- Reagents: long dsRNA against Drosophila genes, about 250 ng dsRNA per well
- Duration: 4 days
- Conditions: cells fed 400 µM oleic acid bound to BSA
- Measurement: 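Microscope images give a droplet-to-nucleus area ratio, taken as log and converted to a screen-wide B-score; higher values mean greater lipid storage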
- Reading the numbers: droplet/nuclear area B-score: higher = more stored lipid (overstorage)
In all, the deposit lists about 17,000 reagents; below is a random part of those that have a named target and a result. 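Each column is one replicate's B-score; the combined score over replicates was not deposited, so single values may mislead.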 A plus sign joins genes that one reagent is predicted to hit. Not all columns of the deposit are shown.

{"predicted target": "CG10931", "amplicon": "DRSC06015", "droplet/nuclear area B-score, replicate 1": -1.18}
{"predicted target": "CG31988", "amplicon": "DRSC22491", "droplet/nuclear area B-score, replicate 1": 0.188}
{"predicted target": "CG7017", "amplicon": "DRSC10762", "droplet/nuclear area B-score, replicate 1": 0.0916}
{"predicted target": "Acbp2", "amplicon": "DRSC11141", "droplet/nuclear area B-score, replicate 1": 1.24}
{"predicted target": "flap", "amplicon": "DRSC03918", "droplet/nuclear area B-score, replicate 1": -1}
{"predicted target": "flap", "amplicon": "DRSC04087", "droplet/nuclear area B-score, replicate 1": 0.824}
{"predicted target": "Ccdc58 + CG34116", "amplicon": "DRSC10105", "droplet/nuclear area B-score, replicate 1": 0.0309}
{"predicted target": "arx", "amplicon": "DRSC10386", "droplet/nuclear area B-score, replicate 1": 0.17}
{"predicted target": "Cpr92F", "amplicon": "DRSC15819", "droplet/nuclear area B-score, replicate 1": -1.47}
{"predicted target": "mIF2", "amplicon": "DRSC14510", "droplet/nuclear area B-score, replicate 1": 0.105}
{"predicted target": "CG30377", "amplicon": "DRSC06477", "droplet/nuclear area B-score, replicate 1": -2.01}
{"predicted target": "CG30377", "amplicon": "DRSC06799", "droplet/nuclear area B-score, replicate 1": -0.383}
{"predicted target": "CG43999", "amplicon": "DRSC14605", "droplet/nuclear area B-score, replicate 1": -0.152}
{"predicted target": "CG8441", "amplicon": "DRSC07180", "droplet/nuclear area B-score, replicate 1": -1.36}
{"predicted target": "CG3119", "amplicon": "DRSC00569", "droplet/nuclear area B-score, replicate 1": -0.177}
{"predicted target": "CG11367", "amplicon": "DRSC22434", "droplet/nuclear area B-score, replicate 1": 0.468}
{"predicted target": "Ostgamma", "amplicon": "DRSC03074", "droplet/nuclear area B-score, replicate 1": -0.454}
{"predicted target": "ct", "amplicon": "DRSC18757", "droplet/nuclear area B-score, replicate 1": -0.164}
{"predicted target": "h-cup + Rbp", "amplicon": "DRSC14990", "droplet/nuclear area B-score, replicate 1": -0.888}
{"predicted target": "CG18537", "amplicon": "DRSC06764", "droplet/nuclear area B-score, replicate 1": -1.48}
{"predicted target": "Polr2E", "amplicon": "DRSC06100", "droplet/nuclear area B-score, replicate 1": -3.77}
{"predicted target": "sona", "amplicon": "DRSC04089", "droplet/nuclear area B-score, replicate 1": -1.01}
{"predicted target": "sona", "amplicon": "DRSC04574", "droplet/nuclear area B-score, replicate 1": -0.0627}
{"predicted target": "sona", "amplicon": "DRSC04575", "droplet/nuclear area B-score, replicate 1": 2.58}
{"predicted target": "Smn", "amplicon": "DRSC10223", "droplet/nuclear area B-score, replicate 1": 0.762}
{"predicted target": "CG12432 (retired record)", "amplicon": "DRSC19455", "droplet/nuclear area B-score, replicate 1": 0.482}
{"predicted target": "CG13793", "amplicon": "DRSC02297", "droplet/nuclear area B-score, replicate 1": -1.65}
{"predicted target": "CG2889", "amplicon": "DRSC18236", "droplet/nuclear area B-score, replicate 1": -0.281}
{"predicted target": "CG13992", "amplicon": "DRSC02324", "droplet/nuclear area B-score, replicate 1": -2.66}
{"predicted target": "CG13578", "amplicon": "DRSC04214", "droplet/nuclear area B-score, replicate 1": 0.594}
{"predicted target": "CG30338", "amplicon": "DRSC05166", "droplet/nuclear area B-score, replicate 1": 0.135}
{"predicted target": "Tdc1", "amplicon": "DRSC04942", "droplet/nuclear area B-score, replicate 1": 2.2}
{"predicted target": "CG6873", "amplicon": "DRSC20014", "droplet/nuclear area B-score, replicate 1": 3.77}
{"predicted target": "Fer3HCH", "amplicon": "DRSC19892", "droplet/nuclear area B-score, replicate 1": -0.0176}
{"predicted target": "mRpL22", "amplicon": "DRSC19915", "droplet/nuclear area B-score, replicate 1": 0.307}
{"predicted target": "Osi12", "amplicon": "DRSC12177", "droplet/nuclear area B-score, replicate 1": 0.0706}
{"predicted target": "CG15073", "amplicon": "DRSC06506", "droplet/nuclear area B-score, replicate 1": -0.154}
{"predicted target": "Samuel", "amplicon": "DRSC02156", "droplet/nuclear area B-score, replicate 1": 3.01}
{"predicted target": "Samuel", "amplicon": "DRSC02401", "droplet/nuclear area B-score, replicate 1": 1.33}
{"predicted target": "Samuel", "amplicon": "DRSC02402", "droplet/nuclear area B-score, replicate 1": 0.567}
{"predicted target": "Samuel", "amplicon": "DRSC21731", "droplet/nuclear area B-score, replicate 1": 0.237}
{"predicted target": "Samuel", "amplicon": "DRSC23114", "droplet/nuclear area B-score, replicate 1": 1.58}
